Results deposited as PubChem BioAssay AID1671195 (Yale University, 2021)
Aim: 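Genes whose knockdown alters LDL uptake in liver cancer cells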 (primary screen). System: human Huh7 hepatoma cells. Reagent: siRNA pool against human genes, 18 nM. Timing: about 2 to 2.5 days of knockdown, then 8 h LDL uptake. Conditions: DiI-labelled LDL at 30 µg/ml for 8 h, in lipoprotein-deficient serum medium. Read-out: 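Per-cell DiI-LDL intensity by automated imaging; well means scaled to the plate median and given as a robust z-score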. Direction: robust z-score: higher = more LDL uptake after knockdown. Rule for the call: 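a gene counts as active if at least two replicate z-scores exceed ±2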.
Shown is an unselected part of about 22,000 deposited reagents. About 1,510 of all reagents (6.9%) count as active. 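Active includes knockdowns raising or lowering LDL uptake; positive z-scores mean more uptake, negative mean less.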

The first 7 entries as a preview:
gene,"robust z-score, replicate 1","robust z-score, replicate 2","robust z-score, replicate 3",call
GNL3 (G protein nucleolar 3),-0.963,-1.08,-0.52,inactive
BSX (brain specific homeobox),-1.53,-1.17,-1.42,inactive
HACD4 (3-hydroxyacyl-CoA dehydratase 4),-0.857,-0.751,-0.386,inactive
KRT3 (keratin 3),-1.21,-0.647,-1.32,inactive
SUCLG2P2 (SUCLG2 pseudogene 2),-0.944,-0.993,-0.972,inactive
PHF20L1 (PHD finger protein 20 like 1),-0.215,-0.115,-0.393,inactive
"MUC17 (mucin 17, cell surface associated)",0.46,-0.316,0.745,inactive

Results, from the start:
gene,"robust z-score, replicate 1","robust z-score, replicate 2","robust z-score, replicate 3",call
GNL3 (G protein nucleolar 3),-0.963,-1.08,-0.52,inactive
BSX (brain specific homeobox),-1.53,-1.17,-1.42,inactive
HACD4 (3-hydroxyacyl-CoA dehydratase 4),-0.857,-0.751,-0.386,inactive
KRT3 (keratin 3),-1.21,-0.647,-1.32,inactive
SUCLG2P2 (SUCLG2 pseudogene 2),-0.944,-0.993,-0.972,inactive
PHF20L1 (PHD finger protein 20 like 1),-0.215,-0.115,-0.393,inactive
"MUC17 (mucin 17, cell surface associated)",0.46,-0.316,0.745,inactive
EPHA8 (EPH receptor A8),-0.476,-0.261,-0.227,inactive
"ACAP2 (ArfGAP with coiled-coil, ankyrin repeat and PH domains 2)",0.126,-1.06,-0.937,inactive
"NBL1 (NBL1, DAN family BMP antagonist)",0.148,-0.165,0.317,inactive
S100A3 (S100 calcium binding protein A3),-0.441,-0.371,-0.603,inactive
STX5 (syntaxin 5),0.542,0.0116,0.139,inactive
MCM4 (minichromosome maintenance complex component 4),-0.254,0.403,0.137,inactive
GLMN (glomulin),0.428,0.753,0.266,inactive
EPHA7 (EPH receptor A7),-0.0977,0.582,-0.825,inactive
ARHGEF10 (Rho guanine nucleotide exchange factor 10),-0.761,-0.58,-0.417,inactive
PPIAP72 (peptidylprolyl isomerase A pseudogene 72),-0.0821,0.548,0.199,inactive
ZRSR2,0.617,0.769,0.521,inactive
ZFP14 (ZFP14 zinc finger protein),-0.0109,0.962,0.589,inactive
LOC132969 (retired record),1.24,-0.404,0.172,inactive
LOC400627,0.211,0.227,0.0175,inactive
SLITRK3 (SLIT and NTRK like family member 3),1.25,-0.079,-0.0999,inactive
AXIN1 (axin 1),0.33,3.35,1.44,inactive
TRPC5,1.56,1.84,2.11,inactive
LINC01538 (long independently transcribed non-coding RNA 1538),-0.898,-0.711,-0.898,inactive
GASAL1 (growth arrest associated lncRNA 1),2.29,1.6,2.26,active
TGFB1 (transforming growth factor beta 1),0.174,0.158,0.244,inactive
SMIM20 (small integral membrane protein 20),2.83,2.17,2.52,active
ING5 (inhibitor of growth family member 5),-0.122,-0.314,-0.05,inactive
CYP3A5 (cytochrome P450 family 3 subfamily A member 5),-0.258,-0.297,-0.0069,inactive
PYDC1 (pyrin domain containing 1),-1.85,-2.2,-1.81,active
ZNF227 (zinc finger protein 227),1.2,1.83,1.61,inactive
LMTK2 (lemur tail kinase 2),1.72,0.353,0.27,inactive
TJAP1 (tight junction associated protein 1),0.335,0.573,0.636,inactive
LOC390846 (golgi SNAP receptor complex member 2 pseudogene),-0.127,-0.488,-0.0273,inactive
CXCL12 (C-X-C motif chemokine ligand 12),-0.8,-1.62,-1.88,inactive
WBP11 (WW domain binding protein 11),0.849,0.746,1.12,inactive
LOC388688 (retired record),-0.0428,-1.22,-1.41,inactive
SULT2B1 (sulfotransferase family 2B member 1),-0.776,-0.338,-0.647,inactive
TRIM63 (tripartite motif containing 63),-0.21,0.948,1.01,inactive
OR1F12P,1.28,0.212,1.09,inactive
SNX10 (sorting nexin 10),-2.07,-2.17,-2.26,active
GARS1 (glycyl-tRNA synthetase 1),0.585,0.834,0.693,inactive
OR51B2 (olfactory receptor family 51 subfamily B member 2),0.347,-0.522,-0.0508,inactive
VEGFD (vascular endothelial growth factor D),0.904,1.28,-0.621,inactive
LOC442003 (retired record),-2.18,-2.32,-2.29,active
TXNDC16 (thioredoxin domain containing 16),-1.03,-1.45,0.67,inactive
IDH1 (isocitrate dehydrogenase (NADP(+)) 1),0.426,-0.344,0.33,inactive
SLC35G2,0.489,0.0684,0.117,inactive
KAT5 (lysine acetyltransferase 5),-1.58,-1.62,-1.95,inactive
KRT18P41 (keratin 18 pseudogene 41),1.21,0.465,1.27,inactive
VEZF1 (vascular endothelial zinc finger 1),-0.237,-0.396,-0.173,inactive
CSRNP1 (cysteine and serine rich nuclear protein 1),-1.35,-2.03,-1.55,inactive
SCLT1 (sodium channel and clathrin linker 1),-0.0299,-0.545,-0.0533,inactive
DAB1 (DAB adaptor protein 1),0.975,0.0562,0.1,inactive
NXPH4 (neurexophilin 4),0.559,-0.52,1.22,inactive
OR1G1 (olfactory receptor family 1 subfamily G member 1),-0.313,0.0633,-0.796,inactive
LOC388006 (retired record),-0.223,-0.29,-0.502,inactive
"B3GALNT2 (beta-1,3-N-acetylgalactosaminyltransferase 2)",0.216,-0.39,0.214,inactive
ZNF558 (zinc finger protein 558),-1.4,-1.44,-1.84,inactive
SPATA24 (spermatogenesis associated 24),0.991,1.05,1.65,inactive
"PCDHGB7 (protocadherin gamma subfamily B, 7)",-0.637,-1.03,-0.383,inactive
CUL1 (cullin 1),-0.675,2.07,0.621,inactive
CDC42BPA (CDC42 binding protein kinase alpha),-0.836,-1.58,-0.395,inactive
SLC35A4,0.253,-0.49,-0.674,inactive
"LARP6 (La ribonucleoprotein 6, translational regulator)",-0.684,-0.733,-0.388,inactive
CTSA (cathepsin A),-0.605,-0.39,-0.56,inactive
RPL13 (ribosomal protein L13),-1.67,-1.91,-1.36,inactive
